The list shows a part of the results. Further columns of the screen follow, without active or inactive calls. Most of these compounds were active or inconclusive in the main read-out, so they are no random draw. Words in brackets tell the shape of the fitted curve; partial curves, single points and poor fits give uncertain potencies.
Assay: qHTS Assay for Lipid Storage Modulators in Drosophila S3 Cells;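 on cell number change: cells counted by Cell Tracker Red CMTPX staining in the red channel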
Details: BODIPY lipid droplet fluorescence, 18-24 h; for cell number change: measured here: cell count max response, cells fed with added oleic acid
Outline: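 Drosophila S3 cells got compounds at several concentrations plus oleic acid (400 uM solution). Laser-scanning cytometry with 488 nm excitation read lipid droplets at 500-530 nm and cells at 575-640 nm. Percent activity was relative to 20 uM Triacsin C.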

[1] = measured here: cell number channel AC50, cells fed with added oleic acid
[2] = measured here: lipid fluorescence (Fed channel) AC50, cells fed with added oleic acid

SMILES | cell number change [%] | AC50 [1] | AC50 [2]
CCC(C)NC(=O)CCn1c(=O)c2cccn2c2ccc(F)cc21 (stereo not given) | -13.5 | 65.1 nM [rising, partial curve, poor fit] | 
CCCCN1CCc2c([nH]c3ccc(C)cc23)C1=O | -32.4 |  | 5170 nM [falling, full curve, poor fit]
Cc1nn(C)c(C)c1S(=O)(=O)N1CCCC(C(=O)N2CCN(c3ccc(Cl)cc3)CC2)C1 (stereo not given) |  |  | 29100 nM [falling, single point]
COCO/C=C(\NC(C)=O)c1ccccc1 | 18 |  | 18400 nM [rising, single point]
Cc1ccc(NC(=O)C2CCN(C(=O)c3cccs3)CC2)cc1 | 10.9 |  | 
Cc1nc(C(=O)NCCC(C)C)sc1C1(C)CC(c2ccccc2)=NO1 (stereo not given) | 5.07 |  | 1640 nM [rising, partial curve, poor fit]
O=C1/C(=C/c2ccc3c(c2)OCO3)CCC/C1=C\c1ccc2c(c1)OCO2 | 22.7 |  | 23.1 nM [rising, full curve, poor fit]
Cc1cc(=O)[nH]c2c1c(C)nn2-c1ccccc1 |  | 4110 nM [falling, single point] | 184 nM [rising, full curve, poor fit]
Cc1cc(C)c(C#N)c(SCCS(=O)(=O)Cc2ccc(Cl)cc2)n1 | -10 |  | 
CCN(CC)S(=O)(=O)c1ccc(N2CCOCC2)c(NC(=O)c2cccc(C#N)c2)c1 |  | 130 nM [rising, full curve] | 
O=C(OCC(=O)N1CCOCC1)c1ccc(O)cc1 | -7.69 |  | 
CC(C)NC(=O)c1nc2c(nnn2Cc2cccc(Cl)c2)c(=O)[nH]1 | -1.72 |  | 
CN(C)c1cccc(C(=O)NNC(=O)/C=C/c2cccs2)c1 | -23.9 | 651 nM [falling, full curve, poor fit] | 
CCn1c(/C=C/Nc2ccccc2)[n+](CC)c2ccc(Cl)cc21 | -7.58 |  | 16400 nM [rising, partial curve]
Cc1ccc(C)c(C(=O)CCC(=O)NCc2ccc(Cl)cc2)c1 | -15.4 | 4610 nM [falling, single point] | 2060 nM [falling, partial curve]
O=C(CC1c2ccccc2Oc2ccccc21)Nc1ccccc1C(F)(F)F |  | 6510 nM [rising, single point] | 
Cc1ccc(C(=O)NCCNC(=O)CN2CCCC2)cc1 | -18.8 |  | 4110 nM [falling, full curve]
O=C(Nc1ccc(N2CCCCC2)cc1)c1ccccc1 | 57 |  | 
CC(=O)NC(Cc1ccc(F)c(F)c1)C(=O)NC1CCN(C(=O)c2ccc(Cl)cc2)CC1 (stereo not given) | 5.56 |  | 
S=c1[nH]nc(-c2ccncc2)n1/N=C/c1cn(-c2ccccc2)nc1-c1ccccc1 | -39.5 | 29100 nM [falling, single point] | 23100 nM [falling, single point]
CCOc1ccc(CCNC(=O)c2nn(C)c3c2CS(=O)(=O)c2ccccc2-3)cc1 | 14 |  | 

9 entries from above, tab-delimited:
SMILES	cell number change [%]	AC50 [1]	AC50 [2]
CCC(C)NC(=O)CCn1c(=O)c2cccn2c2ccc(F)cc21 (stereo not given)	-13.5	65.1 nM [rising, partial curve, poor fit]	
CCCCN1CCc2c([nH]c3ccc(C)cc23)C1=O	-32.4		5170 nM [falling, full curve, poor fit]
Cc1nn(C)c(C)c1S(=O)(=O)N1CCCC(C(=O)N2CCN(c3ccc(Cl)cc3)CC2)C1 (stereo not given)			29100 nM [falling, single point]
CCN(CC)S(=O)(=O)c1ccc(N2CCOCC2)c(NC(=O)c2cccc(C#N)c2)c1		130 nM [rising, full curve]	
O=C(OCC(=O)N1CCOCC1)c1ccc(O)cc1	-7.69		
Cc1ccc(C)c(C(=O)CCC(=O)NCc2ccc(Cl)cc2)c1	-15.4	4610 nM [falling, single point]	2060 nM [falling, partial curve]
Cc1ccc(C(=O)NCCNC(=O)CN2CCCC2)cc1	-18.8		4110 nM [falling, full curve]
O=C(Nc1ccc(N2CCCCC2)cc1)c1ccccc1	57		
S=c1[nH]nc(-c2ccncc2)n1/N=C/c1cn(-c2ccccc2)nc1-c1ccccc1	-39.5	29100 nM [falling, single point]	23100 nM [falling, single point]

More results.

SMILES | cell number change [%] | AC50 [1] | AC50 [2]
Cc1c(C(=O)NN)sc(=S)n1C | 9.47 |  | 
CN(Cc1cccnc1)Cc1cn(Cc2ccccc2)nc1-c1ccc2c(c1)OCO2 | 18.3 |  | 184 nM [rising, full curve, poor fit]
COC(=O)c1ccc(SCc2cnc(Cl)s2)cc1 | 48.3 |  | 
CS(=O)(=O)Nc1ccc(-c2cn3cccnc3n2)cc1 | -7.96 |  | 116 nM [rising, full curve, poor fit]
CC(C)(C)C(=O)NC(=S)Nc1cc(C(=O)O)ccc1Cl | 3.23 |  | 
Cc1cc(NC(=O)CSc2ccc(-c3ccc4c(c3)OCO4)nn2)no1 |  | 1300 nM [falling, full curve] | 
COc1cc2c(cc1OC)CN(CC(=O)Nc1ccccc1C(=O)NCc1ccccc1)CC2 | -31.4 | 2060 nM [falling, partial curve, poor fit] | 
COc1ccc(OC)c2c1sc(=NC(=O)C1CC1)n2C | 13.6 |  | 7310 nM [rising, partial curve]
COc1ccccc1NC(=O)NCC1(N(C)C)CCCCC1 |  |  | 1120 nM [falling, full curve, poor fit]
COc1ccc2c(C)cc(SCC(=O)Nc3nsc(-c4ccc(C)cc4)n3)nc2c1 | -28.8 |  | 29100 nM [falling, single point]
Cn1c(=O)c2c(nc(CN3CCc4ccccc4C3)n2Cc2ccccc2F)n(C)c1=O |  |  | 2590 nM [rising, partial curve]
O=C(Nc1ccccc1)C1CCCN1S(=O)(=O)c1ccc(Br)cc1 (stereo not given) | 13.9 |  | 
COc1ccc(/C(C)=N/OC/C(O)=C(\C#N)c2nc3ccccc3[nH]2)cc1OC | 23.4 |  | 731 nM [rising, full curve, poor fit]
Cn1cccc1-c1nc2ccc(NC(=O)c3ccco3)cc2[nH]1 | 17.5 | 517 nM [rising, full curve, poor fit] | 
O=C(O)c1ccc(Nc2nc3ccccc3nc2NS(=O)(=O)c2ccc(F)cc2)cc1 | -2.75 |  | 517 nM [falling, full curve, poor fit]
COC(=O)c1cc(C(=O)OC)cc(-n2c(C)cc(C(=O)CC#N)c2C)c1 | -25.1 |  | 29100 nM [falling, single point]
Cc1coc2cc3oc(=O)c(CCC(=O)NCC(=O)O)c(C)c3cc12 | 46.5 | 5800 nM [rising, full curve, poor fit] | 
Cc1cc(Nc2ccccc2)n(C(=O)c2ccccc2)n1 | 34.3 | 11600 nM [rising, partial curve] | 6510 nM [falling, single point]
C/C(=N/N1CCN(Cc2cccc3ccccc23)CC1)c1cccnc1 | -3.79 |  | 2910 nM [falling, single point]
CCOC(=O)c1c(Nc2ccc(Cl)cc2)sc(/C=C2\C=Nc3ccccc32)c1O | 38 |  | 1300 nM [rising, full curve]
COc1ccc(C2=NCCNC(C(F)(F)F)=C2)cc1 | -8.36 |  | 731 nM [falling, full curve]
